Test results published in patent US20260041674A1, “METHODS AND COMPOSITIONS FOR MODULATING THE ACTIVITY OF A DIMERIZING AGENT REGULATED IMMUNOMODULATORY COMPLEX” (Seattle Children’s Hospital d/b/a Seattle Children’s …, priority 2021, published 2026).
At least one structure is not confirmed: it was looked up by name or label, or the drawing left a doubt.

System: AML cell line MV4-11 (CD33+)
Experiment: MV4-11 AML xenograft, tumor progression by bioluminescence
Format: in vivo, NSG mice
Details: with SC-DARIC33 T cells; 0.02, 0.05, 0.1 mg/kg qMWF and 0.01 mg/kg daily IP

## CO[C@H]1C[C@@H]2CC[C@@H](C)[C@@](O)(O2)C(=O)C(=O)N2CCCC[C@H]2C(=O)O[C@H]([C@H](C)C[C@@H]2CC[C@@H](O)[C@H](OC)C2)CC(=O)[C@H](C)/C=C(\C)[C@@H](O)[C@@H](OC)C(=O)[C@H](C)C[C@H](C)/C=C/C=C/C=C/1C [Rapamycin, rapamycin]
  survival (p<0.001 log rank test): prolonged survival
